Measurements reported in PubChem BioAssay AID602196 (INSERM, 2012)

Assay: 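Genes whose knock-down alters cisplatin killing of lung cancer cells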
System: human A549 lung cancer cells
Knock-down reagent: siRNA pair against human genes
Time to read-out: 48 h transfection before cisplatin; time from cisplatin to read-out not stated
Treatment: cisplatin at a dose killing half of control-siRNA cells; exact dose and duration not given
Measured: 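Shift in cisplatin death relative to control siRNA, from -50 (all cells die) to +50 (no cells die); siRNAs harmful on their own scored 0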
Reading the numbers: two-siRNA summed score (-2 to +2): higher = both siRNAs protect from cisplatin killing; -2 means both sensitise
Active means: 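siRNAs harmful alone (LDH or WST-1) get 0; others get +1 for less and -1 for more cisplatin killing; genes are active when the two siRNAs give the same sign, summing to ±2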
Calls: active = both siRNAs shift cisplatin killing the same way; inactive = no consistent shift, or siRNA harmful alone
In all, the deposit lists about 23,000 reagents; this is an unselected part. Of all reagents, 455 (2%) were called active. 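Active includes both protection and sensitisation; some change values fall well beyond the stated -50 to +50 range.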 A number with no mark means an inactive call. Reagents against one gene are numbered here. Not all columns of the deposit are shown. The record does not give: the amount of reagent.

| Target gene | reagent no. | two-siRNA summed score (-2 to +2) |
| --- | --- | --- |
| TPT1P8 | 1 | 0 |
| TNNI1 | 1 | 0 |
| FTCD | 1 | 1 |
| KIF14 | 1 | 0 |
| RPP25L | 1 | 0 |
| SDHAF3 | 1 | 0 |
| POFUT2 | 1 | 0 |
| LNCRI | 1 | 0 |
| LOC388887 | 1 | 0 |
| LOC147645 | 1 | 0 |
| CDCA7 | 1 | 0 |
| OSGEP | 1 | 0 |
| DHX34 | 1 | 0 |
| BTBD8 | 1 | 0 |
| BTBD8 | 2 | 0 |
| LOC441510 | 1 | 0 |
| LOC440783 | 1 | 0 |
| BTN3A3 | 1 | -1 |
| TP53TG1 | 1 | 2 (active) |
| LOC440997 | 1 | 0 |
| LOC101928906 | 1 | 0 |
| CRY2 | 1 | 0 |
| CRY2 | 2 | 0 |
| KRTAP19-2 | 1 | -1 |
| PRSS16 | 1 | -2 (active) |
| LOC442011 | 1 | 1 |
| TIMM50 | 1 | 0 |
| TLL2 | 1 | 0 |
| GRIA4 | 1 | 0 |
| NHLRC1 | 1 | 1 |
| MLH1 | 1 | 0 |
| IL17RB | 1 | 0 |
| GPM6B | 1 | 0 |
| KAT6B | 1 | 0 |
| CDS1 | 1 | 0 |
| LOC440569 | 1 | 0 |
| TMIE | 1 | 0 |
| PAK1 | 1 | 0 |
| DEFB106A | 1 | 1 |
| SLC41A3 | 1 | 1 |
| FUNDC2 | 1 | 0 |
| SPA17 | 1 | 0 |
| GSTA4 | 1 | 0 |
| LOC392557 | 1 | 1 |
| SGK2 | 1 | 0 |
| RAB39A | 1 | 0 |
| LOC388509 | 1 | 0 |
| LOC402538 | 1 | 0 |
| STK33 | 1 | 2 (active) |
| CALCA | 1 | -1 |
| OR4C13 | 1 | -1 |
| CES1P1 | 1 | 0 |
| RMND5B | 1 | 0 |
| LOC440000 | 1 | 0 |
| LOC441832 | 1 | 0 |
| CISH | 1 | 0 |
| LOC441710 | 1 | 1 |
